Publication doi:10.1101/431023
These are yes or no findings as the source states them, for the method shown. In cells and extracts the contact can be indirect. Some results given as binding are weak or reduced against the parent protein; the word gives no strength. Sequences can lack the tags named with a protein.

Experiments:
[1] = biological target: T1, 3xFLAG-TCF7L1 (knock-in at one allele of endogenous TCF7L1) (mouse (endogenous in mESCs)) (UniProt Q9Z1J1); test: proximity ligation
T1 sequence: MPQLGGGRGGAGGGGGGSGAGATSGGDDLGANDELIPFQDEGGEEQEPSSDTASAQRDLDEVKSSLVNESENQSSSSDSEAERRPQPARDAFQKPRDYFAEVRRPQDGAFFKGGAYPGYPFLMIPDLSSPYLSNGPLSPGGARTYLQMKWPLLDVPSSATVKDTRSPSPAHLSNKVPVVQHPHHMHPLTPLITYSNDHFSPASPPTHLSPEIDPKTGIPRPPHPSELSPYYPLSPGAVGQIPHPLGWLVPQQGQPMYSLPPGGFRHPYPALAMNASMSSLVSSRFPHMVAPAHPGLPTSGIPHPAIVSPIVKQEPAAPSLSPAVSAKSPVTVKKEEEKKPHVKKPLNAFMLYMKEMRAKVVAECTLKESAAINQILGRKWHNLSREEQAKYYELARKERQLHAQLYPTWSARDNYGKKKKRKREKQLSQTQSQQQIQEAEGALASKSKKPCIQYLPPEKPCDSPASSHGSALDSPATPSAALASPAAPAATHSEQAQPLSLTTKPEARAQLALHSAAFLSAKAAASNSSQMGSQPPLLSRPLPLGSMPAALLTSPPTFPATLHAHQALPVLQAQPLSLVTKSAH

[2] = biological target: T1, 3xFLAG-TCF7L1 (knock-in at one allele of endogenous TCF7L1) (mouse (endogenous in mESCs)); test: co-IP

Molecule	binding [1]	binding [2]
SALL4 (from UniProt Q8BX22 1-1067)	binds	–
SALL4 isoform SALL4A (from UniProt Q8BX22-1 1-1067)	–	binds
SALL4 isoform SALL4B (protein, UniProt Q8BX22-2 1-623) MSRRKQAKPQHINWEEGQGEQPQQLPSPDLAEALAAEEPGAPVNSPGNCDEASEDSIPVKRPRREDTHICNKCCAEFFSLSEFMEHKKSCTKTPPVLIMNDSEGPVPSEDFSRAALSHQLGSPSNKDSLQENGSSSGDLKKLGTDSILYLKTEATQPSTPQDISYLPKGKVANTNVTLQALRGTKVAVNQRGAEAPMAPMPAAQGIPWVLEQILCLQQQQLQQIQLTEQIRVQVNMWAAHALHSGVAGADTLKALSSHVSQQVSVSQQVSAAVALLSQKASNPALSLDALKQAKLPHASVPSAASPLSSGLTSFTLKPDGTRVLPNFVSRLPSALLPQTPGSVLLQSPFSAVTLDQSKKGKGKPQNLSASASVLDVKAKDEVVLGRTSLPPTFIRAQPTFVKVEVPGTFVGPPSMPSGMPPLLASQPQPRRQAKQHCCTRCGKNFSSASALQIHERTHTGEKPFVCNICGRAFTTKGNLKVHYMTHGANNNSARRGRKLAIENPMAALSAEGKRAPEVFSKELLSPAVSVDPASWNQYTSVLNGGLAMKTNEISVIQSGGIPTLPVSLGASSVVSNGTISKLDGSQTGVSMPMSGNGEKLAVPDGMAKHQFPHFLEENKIAVS	–	no binding
